These results are taken from patent US20030003461.

Sequences of proteins named here, by UniProt entry; tags and fusion partners are left off. Residues count along the entry.
UniProt P01137, 279-390: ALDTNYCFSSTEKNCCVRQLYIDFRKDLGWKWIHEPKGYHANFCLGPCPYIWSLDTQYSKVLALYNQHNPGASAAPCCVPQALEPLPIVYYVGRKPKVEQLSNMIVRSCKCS

Construct, isoform or probe ends are uncertain for at least one entry. Negatives hold for the conditions tested.

For the data set, the target named is TGFβ1 (Homo sapiens) (UniProt P01137). The data set can be described thus: filter binding. To be noted: 2'-F pyrimidines, purified recombinant protein, protein details: recombinant human, R&D Systems; for binding result: NB.
Setting [1] is: fixed sequences removed, plateau 5%.
[2] abbreviates: 3' fixed sequence removed, plateau 20%.
Setting [3] is: 3' fixed sequence removed, plateau 35%.
The mark [4] stands for this setting: fixed sequences removed, plateau 10%.
Where [5] appears, read: 3' fixed sequence removed, plateau 25%.
[6] abbreviates: fixed sequences removed, plateau 30%.
Where [7] appears, read: 3' fixed sequence removed, plateau 22%.
[8] abbreviates: 3' fixed sequence removed, plateau 30%.

Broadly, the Kd is a measure of binding affinity in units of concentration. Regarding “GGGAGGACGAUGCGGAGUUUUGGGAUCGCCACAGAUCUUACUGUGAGCUACUGUGCAGACGACUCGCCCGA [hyb ligand 40]”, the Kd under setting [1] was found to be 3000 pM.
On the same count and under the same terms, next, “GGGAGGACGAUGCGGGGUGCCUUUAGUCUUUGCAUCUUAUAAAUGCAAUCUGCCCCAGACGACUCGCCCGA [hyb ligand 18]”: 200 pM.
Turning to “GGGAGGACGAUGCGGAAGACCGUUCCGAGUGGUACAAGUAAACCCCUGUGUUCCGCAGACGACUCGCCCGA [hyb ligand 31]”, the Kd (fixed sequences removed, plateau 60%) turned out to be 2000 pM.
As for “GGGAGGACGAUGCGGCAGCUCACUUAUAUUUCCGUCCAAUUCCUUCUUUACUGCCCAGACGACUCGCCCGA [hyb ligand 34]”, the binding result (fixed sequences removed) is on record as “no binding”.
Take “GGGAGGGUUAACCGUUAAGACGGCUUUAUUUUGUCCCCAGACGACUCGCCCGA [30NtruNc 13]”: the Kd under setting [2] came to 1400 pM.
For “GGGAGUGGGAAUUUUUGGUAAAGCCGUAUGCCUCGCCAGACGACUCGCCCGA [30NtruNc 12]”, the dissociation constant Kd under setting [3] is 880 pM.
On to “GGGAGGACGAUGCGGUUAGUUCGGGCUCAACACCGCUAAGAUUCUUCGUUCCCCCAGACGACUCGCCCGA [hyb ligand 22,28]”, for which the binding result (fixed sequences removed) is reported as “no binding”.
Still for that read-out and setting: the result for “GGGAGGACGAUGCGGUAGUGAUGAAUUUUUGCUGGAUCUGGUUUUGAACCGUCCCCAGACGACUCGCCCGA [hyb ligand 62]” reads “no binding”.
On to “GGGAGGACGAUGCGGAUCUGAAUUUAUUCGUCUACAGUUACGGCUGGGCCUUCCGCAGACGACUCGCCCGA [hyb ligand 41]”, for which the Kd under setting [4] is 600 pM.
Consider “GGGAGAUUUUUGGUAAAGCCAGACGACUCGCCCGA [30NtruNc 18]”, for which, for the setting “3' fixed sequence removed”, the binding result is listed as “no binding”.
In the case of “GGGAGGACGAUGCGGGGUGCCUGUAGUCUUUGCAUCUUAUAAAUGCAAUCUGCCCCAGACGACUCGCCCGA [hyb ligand 2,7,44]”, the Kd (fixed sequences removed by RNaseH, plateau 10%) was determined as 4000 pM.
Consider “GGGAGGACGAUGCGGUGUUUGUGCUACGACCUACAUUCGUUGGAAUGUUCUGCCGCAGACGACUCGCCCGA [hyb ligand 23]”, for which the Kd under setting [4] was determined as 400 pM.
As to “GGGAGGACGAUGCGGAGUUUCAGGAUAUGUUGUGUGGUCGUUCUUUUUCCUCCCCAGACGACUCGCCCGA [hyb ligand 66]”, for the setting “fixed sequences removed”, the binding result is on record as “no binding”.
Still for that read-out and setting: the result for “GGGAGGACGAUGCGGGACGUAGCGGGAUGCUUUAACUUUGAUCGUCCAUCAUGUGCAGACGACUCGCCCGA [hyb ligand 50]” reads “no binding”.
On to “GGGAGGGGAAUUUUUGGUAAAGCCAUAUGCCUCGCCACAGACGACUCGCCCGA [30NtruNc 27]”, for which the Kd (3' fixed sequence removed) is above 30000 pM.
Turning to “GGGAGCGGGAAUUUUUGGUAAAGCCGUAUGCCUCGCCACAGACGACUCGCCCGA [30NtruNc 19]”, the Kd under setting [3] came to 560 pM.
On to “GGGAGGACGAUGCGGUCUUUCGAACUGGGAAUUUUUGGUGUAGCCGUAUGCCCAGACGACUCGCCCGA [hyb ligand 59]”, for which the Kd (fixed sequences removed, plateau 40%) amounted to 500 pM.
As to “GGGAGGACGAUGCGGGUGCCUUUUGCCUAGGUUGUGAUUUGUAACCUUCUGCCCAGACGACUCGCCCGA [hyb ligand 70]”, the Kd (fixed sequences removed, plateau 25%) was 200 pM.
On to “GGGAGGGGAGGGGUGCCUGUAGUCUUUGCAUCUUAUAAAUGCAAUCUGCCCCAGACGACUCGCCCGA [AG1]”, for which the Kd (3' fixed sequence removed, biphasic, plateau 14%, low-affinity Kd 0.5 nM, plateau 25%) is 100 pM.
“GGGAGGGGAGCAGACGACUCGCCCGAACUGGGAAUUUUUGGUUGAGCCGUAUGCCCAGACGACUCGCCCGA [AG6]”: the Kd (3' fixed sequence removed, biphasic, plateau 12%, low-affinity Kd 0.2 nM, plateau 25%) came out at 4 pM.
With “GGGAGGACGAUGCGGAUCACUAGGCUCAUUUGUGAGCCGUUAUUCCUUGACUCCAGACGACUCGCCCGA [hyb ligand 67]”, under “fixed sequences removed, plateau 8%”, the Kd is 100 pM.
In the case of “GGGAGAGGGAUCUGGAAUUUUUGGUUUAGCCGUACGCCAGACGACUCGCCCGA [30NtruNc 4]”, the Kd under setting [2] was determined as 88 pM.
As for “GGGAGGGUUAACCGUUAAGACGGCUUCAUUUUGUCCCCAGACGACUCGCCCGA [30NtruNc 8]”, the binding result (3' fixed sequence removed) is listed as “no binding”.
For the sequence “GGGAGGACGAUGCGGUAGUGAUGAACUUUUGCUGGAUCUGGUUUUGAGCCGUCCCCAGACGACUCGCCCGA [hyb ligand 3]”, the binding result (fixed sequences removed) is reported as “no binding”.
On the same count and under the same terms, the result for “GGGAGGACGAUGCGGUUAGGUCGGGCUCAACACCGCUAAAAAAUUCUUCGUUCCCCCAGACGACUCGCCCGA [hyb ligand 49]” reads “no binding”.
With “GGGAGGGGAAUUUUUGGUAAAGCCGUAUGCCUCGCCAGACGACUCGCCCGA [30NtruNc 20]”, the Kd under setting [5] stood at 340 pM.
As for “GGGAGGGGACAGACGACUCGCCCGAGGGAUUUUACGUUCGUCUCGCGUCUCCCCAGACGACUCGCCCGA [AG7]”, the binding result (3' fixed sequence removed) is reported as “no binding”.
For the sequence “GGGAGGACGAUGCGGUGCCUUUAGUCUGAAUCUUACCAUGAUUCUCUGCCGCAGACGACUCGCCCGA [hyb ligand 29]”, the Kd under setting [4] was found to be 800 pM.
“GGGAGGACGAUGCGGUGUCUUUAGCCUACAGUUGACUGUUCAAUUGUUCUGCCGCAGACGACUCGCCCGA [hyb ligand 52]”: the Kd under setting [6] is 1000 pM.
With “GGGAGGGAAUUUUUGUGUAGACGUAUGCCCUUUGCCCAGACGACUCGCCCGA [30NtruNc 23]”, the Kd under setting [3] was found to be 930 pM.
“GGGAGGGGAGGGGUGCCUUUAGCUUGGUCUGUUUAGUACAUUCCUCUGCCCCAGACGACUCGCCCGA [AG18]”: the Kd under setting [7] is 1000 pM.
For the sequence “GGGAGGGUUAACCGUAAAGACGGCAUUAUGUAGUCCCCAGACGACUCGCCCGA [30NtruNc 36]”, the Kd (3' fixed sequence removed, plateau 40%) came out at 31000 pM.
Regarding “GGGAGGGGAGGGAUUCUGCCGAGUUAAUUUCGGUGUCUGUAGCUUAUCCCCAGACGACUCGCCCGA [AG11]”, the dissociation constant Kd under setting [7] amounted to 1000 pM.
On to “GGGAGGACGAUGCGGUAGUGACGAAUUUUUGCUGGAUCUGGUUUUGAACCGUCCCCAGACGACUCGCCCGA [hyb ligand 20]”, for which, for the setting “fixed sequences removed”, the binding result is recorded as “no binding”.
Turning to “GGGAGGGUUUCAUGGAAUUUUUGGUUUAGCCGUAUGCCAGACGACUCGCCCGA [30NtruNc 6]”, under setting [3], the Kd turned out to be 2000 pM.
Regarding “GGGAGGACGAUGCGGAUCUGAAUUUAUUCGUCUACAGUUACGCUGGGCCUUCCGCAGACGACUCGCCCGA [hyb ligand 51]”, the Kd under setting [4] amounted to 300 pM.
For the sequence “GGGAGGGUUAACCGUUAAGACGGCGUCAUUUUGUCCCCAGACGACUCGCCCGA [30NtruNc 1]”, the Kd under setting [8] amounted to 81 pM.
For “GGGAGGGAAUUUUUGAUUUAGUCGUACGCCGCAUCCCCAGACGACUCGCCCGA [30NtruNc 38]”, the Kd (3' fixed sequence removed, plateau 17%) was determined as 200 pM.
Regarding “GGGAGGACGAUGCGGAUGCCUUUUGCCUUCAGGGUGUGAUUCCUUGAUCUGUCCGCAGACGACUCGCCCGA [hyb ligand 14,43a,71]”, the Kd under setting [1] was 600 pM.
For the sequence “GGGAGGGUUAACCGUUAAGACGGCGUUAUUUUGUCCCCAGACGACUCGCCCGA [30NtruNc 24]”, under setting [8], the Kd stood at 2500 pM.
In the case of “GGGAGGGUUUCAUGGAAUUUUUGGUAAAGCCGUAUGCCUCGCCACAGACGACUCGCCCGA [30NtruNc 3]”, the Kd (3' fixed sequence removed, plateau 70%) came to 30000 pM.
For “GGGAGGACGAUGCGGAGUGAAUUGCAUCCUUCGAUUACCUACUCUUUUGUGCCCCAGACGACUCGCCCGA [hyb ligand 11]”, the binding result (fixed sequences removed) is given as “no binding”.
Same read-out and setting: next, “GGGAGGACGAUGCGGUAGUGAUGAACUUUUGCUGGAUUGGUUUUGAACCGUCCCCAGACGACUCGCCCGA [hyb ligand 16]”: “no binding”.
For “GGGAGGACGAUGCGGAUCUGAAUUUAUUCGUCUACAGUUACAGCUGGGCCUUCCGCAGACGACUCGCCCGA [hyb ligand 1,12]”, under setting [4], the Kd stood at 1000 pM.
With “GGGAGGGUUCUGGAAUUUUUGGUUUAGCCGUACGCCAGACGACUCGCCCGA [30NtruNc 2]”, the Kd (3' fixed sequence removed, plateau 37%) is 1200 pM.
On to “GGGAGGGGAGGGAUUCUGCCGAGUUAACGUCGGUGUCUGUAGCUUAUCCCCAGACGACUCGCCCGA [AG2]”, for which, under setting [5], the Kd worked out at 1000 pM.
Regarding “GGGAGGGGAGGGUGUUUCGAACUGGGAAUUUUUGGUUUAGCCGUAUGCCCAGACGACUCGCCCGA [AG16]”, the Kd (3' fixed sequence removed, plateau 23%) was found to be 20 pM.
For the sequence “GGGAGGACGAUGCGGUUAGUUCGGGCUCAACACCGCUAAUAUUCUUCGUUCCCCCAGACGACUCGCCCGA [hyb ligand 33]”, for the setting “fixed sequences removed”, the binding result is recorded as “no binding”.
Still for that read-out and setting: the result for “GGGAGGACGAUGCGGAUCUGGGUGACCUCUGUGUACGUUUAUUUUUACCGACCCCAGACGACUCGCCCGA [hyb ligand 32]” reads “no binding”.
Regarding “GGGAGGACGAUGCGGAAGGCAAGAAGCUUUAUGUGUCGCGUAACACAACUGUCCGCAGACGACUCGCCCGA [hyb ligand 56]”, the Kd under setting [6] was 4000 pM.
On to “GGGAGGACGAUGCGGGAUGUAGCGGGAUGCUUUAACUUUGAUCGUCCACCAUGUGCAGACGACUCGCCCGA [hyb ligand 53]”, for which, for the setting “fixed sequences removed”, the binding result is reported as “no binding”.
Still for that read-out and setting: next, “GGGAGGACGAUGCGGUGCCUUAGCAUGAAUAUACUGAUGUAUAUUCUCUGCCCCAGACGACUCGCCCGA [hyb ligand 39]”: “no binding”.
